Measurements: publication doi:10.1101/2024.09.19.613899
No constants are given. Whether binding was seen depends on the method and setting. Binding seen in cells or lysates may run through a third protein. Some binding calls cover weakened binding; strength is not graded here. Values belong to the substance of their own block, whether it stands above or below them.

Amino acid sequences for entries named in this document (tags omitted).
UniProt Q08211: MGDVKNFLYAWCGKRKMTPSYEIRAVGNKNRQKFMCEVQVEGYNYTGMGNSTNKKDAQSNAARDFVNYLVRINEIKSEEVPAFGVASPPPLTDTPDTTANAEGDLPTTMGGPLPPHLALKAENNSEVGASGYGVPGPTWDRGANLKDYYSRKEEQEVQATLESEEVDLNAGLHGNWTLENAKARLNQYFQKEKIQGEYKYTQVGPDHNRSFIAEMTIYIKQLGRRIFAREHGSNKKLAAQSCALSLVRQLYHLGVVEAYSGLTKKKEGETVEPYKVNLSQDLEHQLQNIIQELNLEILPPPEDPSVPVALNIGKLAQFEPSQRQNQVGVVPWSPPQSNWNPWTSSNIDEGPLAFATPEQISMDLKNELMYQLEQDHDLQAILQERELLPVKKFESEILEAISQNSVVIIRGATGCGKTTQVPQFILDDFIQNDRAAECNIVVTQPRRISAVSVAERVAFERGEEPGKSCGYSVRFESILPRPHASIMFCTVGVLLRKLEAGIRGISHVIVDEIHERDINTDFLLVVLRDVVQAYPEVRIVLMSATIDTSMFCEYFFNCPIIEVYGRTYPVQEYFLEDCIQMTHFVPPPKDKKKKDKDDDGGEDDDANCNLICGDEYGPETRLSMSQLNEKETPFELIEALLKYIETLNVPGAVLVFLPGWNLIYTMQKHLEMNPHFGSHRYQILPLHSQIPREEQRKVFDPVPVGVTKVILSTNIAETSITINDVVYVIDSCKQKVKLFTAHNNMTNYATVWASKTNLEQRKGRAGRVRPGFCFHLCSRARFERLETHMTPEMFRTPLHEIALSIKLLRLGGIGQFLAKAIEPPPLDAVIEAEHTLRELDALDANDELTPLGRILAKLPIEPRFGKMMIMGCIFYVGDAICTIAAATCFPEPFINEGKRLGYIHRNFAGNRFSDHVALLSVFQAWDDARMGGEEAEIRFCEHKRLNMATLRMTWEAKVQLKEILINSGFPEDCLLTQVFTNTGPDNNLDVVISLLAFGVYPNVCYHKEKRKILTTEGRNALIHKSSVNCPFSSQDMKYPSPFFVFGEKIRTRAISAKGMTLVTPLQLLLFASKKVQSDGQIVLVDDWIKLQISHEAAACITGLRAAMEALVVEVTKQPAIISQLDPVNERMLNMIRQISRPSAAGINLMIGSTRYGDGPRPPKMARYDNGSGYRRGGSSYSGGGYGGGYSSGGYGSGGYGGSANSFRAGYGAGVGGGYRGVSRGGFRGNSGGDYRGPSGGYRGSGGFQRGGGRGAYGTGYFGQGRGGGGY
UniProt F1N4J1: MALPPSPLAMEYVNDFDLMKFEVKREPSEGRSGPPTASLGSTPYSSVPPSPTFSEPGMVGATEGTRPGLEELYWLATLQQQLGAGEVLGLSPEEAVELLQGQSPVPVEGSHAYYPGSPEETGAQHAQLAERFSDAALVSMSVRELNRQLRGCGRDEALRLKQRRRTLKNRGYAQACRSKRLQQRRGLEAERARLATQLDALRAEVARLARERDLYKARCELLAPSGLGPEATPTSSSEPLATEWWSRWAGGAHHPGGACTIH
UniProt Q28141: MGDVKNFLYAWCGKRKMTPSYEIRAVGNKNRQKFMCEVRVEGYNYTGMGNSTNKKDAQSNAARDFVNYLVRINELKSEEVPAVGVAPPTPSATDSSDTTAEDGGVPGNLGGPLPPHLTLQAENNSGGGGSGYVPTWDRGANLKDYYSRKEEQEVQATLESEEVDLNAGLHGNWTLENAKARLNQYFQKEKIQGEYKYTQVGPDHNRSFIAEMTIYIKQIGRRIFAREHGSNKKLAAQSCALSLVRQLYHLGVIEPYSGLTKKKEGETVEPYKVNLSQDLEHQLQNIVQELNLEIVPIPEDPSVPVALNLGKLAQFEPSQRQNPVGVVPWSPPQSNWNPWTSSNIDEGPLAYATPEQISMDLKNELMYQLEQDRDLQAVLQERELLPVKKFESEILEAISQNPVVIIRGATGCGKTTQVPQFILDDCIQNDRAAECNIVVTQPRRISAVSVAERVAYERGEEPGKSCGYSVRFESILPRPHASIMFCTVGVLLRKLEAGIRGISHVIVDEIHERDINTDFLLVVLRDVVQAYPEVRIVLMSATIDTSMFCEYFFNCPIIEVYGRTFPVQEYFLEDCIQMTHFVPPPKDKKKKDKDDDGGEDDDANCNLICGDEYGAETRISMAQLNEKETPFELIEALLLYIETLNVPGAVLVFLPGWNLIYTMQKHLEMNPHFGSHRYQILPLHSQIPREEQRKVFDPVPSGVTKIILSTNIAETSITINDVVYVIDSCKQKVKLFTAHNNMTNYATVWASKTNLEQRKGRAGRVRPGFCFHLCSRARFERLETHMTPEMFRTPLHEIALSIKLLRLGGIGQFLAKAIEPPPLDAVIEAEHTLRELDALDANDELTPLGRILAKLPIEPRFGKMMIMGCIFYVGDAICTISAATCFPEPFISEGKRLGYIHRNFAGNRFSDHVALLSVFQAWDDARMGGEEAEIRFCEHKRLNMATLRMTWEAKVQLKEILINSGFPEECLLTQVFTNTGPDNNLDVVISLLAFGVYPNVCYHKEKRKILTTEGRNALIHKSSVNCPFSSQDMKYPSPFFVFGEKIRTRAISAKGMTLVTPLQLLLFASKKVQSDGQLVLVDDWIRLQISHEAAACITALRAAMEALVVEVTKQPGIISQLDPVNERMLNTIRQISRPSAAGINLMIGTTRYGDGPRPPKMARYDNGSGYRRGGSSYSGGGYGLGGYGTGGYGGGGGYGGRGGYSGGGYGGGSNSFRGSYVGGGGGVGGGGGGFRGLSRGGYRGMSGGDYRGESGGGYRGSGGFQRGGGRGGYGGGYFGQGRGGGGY
UniProt P54846: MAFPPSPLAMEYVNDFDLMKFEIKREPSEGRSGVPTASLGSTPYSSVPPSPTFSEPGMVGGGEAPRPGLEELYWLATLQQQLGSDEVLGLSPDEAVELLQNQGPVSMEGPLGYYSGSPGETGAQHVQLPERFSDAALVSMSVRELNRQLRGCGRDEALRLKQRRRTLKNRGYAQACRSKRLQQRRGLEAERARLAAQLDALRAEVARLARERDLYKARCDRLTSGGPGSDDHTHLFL
UniProt P54845: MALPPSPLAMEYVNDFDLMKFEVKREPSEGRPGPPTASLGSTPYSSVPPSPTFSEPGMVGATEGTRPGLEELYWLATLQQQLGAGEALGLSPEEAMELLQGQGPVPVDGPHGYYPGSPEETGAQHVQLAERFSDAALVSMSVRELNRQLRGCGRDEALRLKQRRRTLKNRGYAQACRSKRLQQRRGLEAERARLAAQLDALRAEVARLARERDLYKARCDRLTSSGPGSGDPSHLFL
UniProt A0A3Q1M155: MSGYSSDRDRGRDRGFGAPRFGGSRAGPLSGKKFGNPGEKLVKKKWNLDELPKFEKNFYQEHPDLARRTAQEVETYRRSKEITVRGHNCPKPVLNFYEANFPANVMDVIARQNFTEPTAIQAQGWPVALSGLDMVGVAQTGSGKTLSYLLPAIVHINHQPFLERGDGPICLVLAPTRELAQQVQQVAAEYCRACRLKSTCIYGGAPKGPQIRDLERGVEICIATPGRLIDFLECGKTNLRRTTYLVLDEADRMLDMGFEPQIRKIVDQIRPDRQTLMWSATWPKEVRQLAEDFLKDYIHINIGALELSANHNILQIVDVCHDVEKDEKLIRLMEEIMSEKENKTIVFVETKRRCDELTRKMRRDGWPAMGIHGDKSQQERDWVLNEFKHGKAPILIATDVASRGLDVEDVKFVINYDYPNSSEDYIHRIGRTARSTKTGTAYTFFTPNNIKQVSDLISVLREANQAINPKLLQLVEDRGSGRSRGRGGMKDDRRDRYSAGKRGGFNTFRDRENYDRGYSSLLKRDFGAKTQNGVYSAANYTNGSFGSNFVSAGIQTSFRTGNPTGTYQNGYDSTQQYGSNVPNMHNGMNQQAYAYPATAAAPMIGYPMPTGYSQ
UniProt O70133: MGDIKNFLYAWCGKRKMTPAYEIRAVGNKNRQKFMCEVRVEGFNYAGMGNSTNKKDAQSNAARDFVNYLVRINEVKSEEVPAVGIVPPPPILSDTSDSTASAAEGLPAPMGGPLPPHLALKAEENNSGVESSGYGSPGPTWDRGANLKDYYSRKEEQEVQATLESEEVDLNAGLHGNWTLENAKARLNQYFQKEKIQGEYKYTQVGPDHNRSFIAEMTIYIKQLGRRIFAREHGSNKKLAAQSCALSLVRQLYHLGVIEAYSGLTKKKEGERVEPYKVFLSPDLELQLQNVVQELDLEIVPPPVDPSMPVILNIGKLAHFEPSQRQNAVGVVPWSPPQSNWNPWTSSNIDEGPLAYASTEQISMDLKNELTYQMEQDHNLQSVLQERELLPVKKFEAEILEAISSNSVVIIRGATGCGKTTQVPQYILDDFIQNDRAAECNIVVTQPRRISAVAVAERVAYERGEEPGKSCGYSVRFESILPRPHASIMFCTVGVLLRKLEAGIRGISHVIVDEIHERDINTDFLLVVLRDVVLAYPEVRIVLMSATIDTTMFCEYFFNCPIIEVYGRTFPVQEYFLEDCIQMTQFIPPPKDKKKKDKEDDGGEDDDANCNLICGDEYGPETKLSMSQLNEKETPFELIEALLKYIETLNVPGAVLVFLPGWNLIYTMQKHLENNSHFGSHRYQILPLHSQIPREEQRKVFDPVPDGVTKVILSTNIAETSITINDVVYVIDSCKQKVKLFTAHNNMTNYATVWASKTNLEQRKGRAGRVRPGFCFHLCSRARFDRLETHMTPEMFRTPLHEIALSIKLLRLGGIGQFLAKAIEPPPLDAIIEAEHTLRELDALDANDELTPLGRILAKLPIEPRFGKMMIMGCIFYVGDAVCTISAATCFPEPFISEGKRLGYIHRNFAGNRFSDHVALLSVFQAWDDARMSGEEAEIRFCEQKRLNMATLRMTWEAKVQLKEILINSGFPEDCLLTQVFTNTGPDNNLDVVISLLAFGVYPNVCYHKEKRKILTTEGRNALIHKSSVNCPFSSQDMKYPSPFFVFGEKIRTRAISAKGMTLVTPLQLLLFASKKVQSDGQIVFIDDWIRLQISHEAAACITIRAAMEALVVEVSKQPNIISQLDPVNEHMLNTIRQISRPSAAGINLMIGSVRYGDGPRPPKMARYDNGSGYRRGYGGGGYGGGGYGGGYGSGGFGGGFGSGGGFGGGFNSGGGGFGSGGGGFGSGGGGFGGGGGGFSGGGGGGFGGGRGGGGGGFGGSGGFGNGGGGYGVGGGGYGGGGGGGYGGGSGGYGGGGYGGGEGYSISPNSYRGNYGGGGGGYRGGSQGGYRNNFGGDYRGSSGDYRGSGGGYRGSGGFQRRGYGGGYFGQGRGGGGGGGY
UniProt P09867: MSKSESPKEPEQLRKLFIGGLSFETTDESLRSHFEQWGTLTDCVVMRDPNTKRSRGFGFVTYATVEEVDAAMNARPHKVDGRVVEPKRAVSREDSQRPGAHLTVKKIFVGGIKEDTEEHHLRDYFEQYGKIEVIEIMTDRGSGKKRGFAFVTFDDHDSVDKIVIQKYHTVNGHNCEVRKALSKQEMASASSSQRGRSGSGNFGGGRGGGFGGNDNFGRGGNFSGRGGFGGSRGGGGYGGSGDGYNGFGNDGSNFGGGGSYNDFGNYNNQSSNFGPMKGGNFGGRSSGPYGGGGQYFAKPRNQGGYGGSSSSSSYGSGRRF
UniProt Q2HJ60: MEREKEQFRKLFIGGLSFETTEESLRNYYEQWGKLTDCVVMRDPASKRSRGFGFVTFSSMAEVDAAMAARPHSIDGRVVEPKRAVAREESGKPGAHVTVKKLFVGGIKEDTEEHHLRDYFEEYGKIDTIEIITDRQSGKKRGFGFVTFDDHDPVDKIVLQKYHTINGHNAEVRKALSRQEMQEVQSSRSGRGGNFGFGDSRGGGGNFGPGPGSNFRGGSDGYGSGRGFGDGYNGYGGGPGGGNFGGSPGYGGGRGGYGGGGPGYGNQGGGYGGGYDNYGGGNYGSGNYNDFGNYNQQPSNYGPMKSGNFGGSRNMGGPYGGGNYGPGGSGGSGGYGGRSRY
UniProt P17844: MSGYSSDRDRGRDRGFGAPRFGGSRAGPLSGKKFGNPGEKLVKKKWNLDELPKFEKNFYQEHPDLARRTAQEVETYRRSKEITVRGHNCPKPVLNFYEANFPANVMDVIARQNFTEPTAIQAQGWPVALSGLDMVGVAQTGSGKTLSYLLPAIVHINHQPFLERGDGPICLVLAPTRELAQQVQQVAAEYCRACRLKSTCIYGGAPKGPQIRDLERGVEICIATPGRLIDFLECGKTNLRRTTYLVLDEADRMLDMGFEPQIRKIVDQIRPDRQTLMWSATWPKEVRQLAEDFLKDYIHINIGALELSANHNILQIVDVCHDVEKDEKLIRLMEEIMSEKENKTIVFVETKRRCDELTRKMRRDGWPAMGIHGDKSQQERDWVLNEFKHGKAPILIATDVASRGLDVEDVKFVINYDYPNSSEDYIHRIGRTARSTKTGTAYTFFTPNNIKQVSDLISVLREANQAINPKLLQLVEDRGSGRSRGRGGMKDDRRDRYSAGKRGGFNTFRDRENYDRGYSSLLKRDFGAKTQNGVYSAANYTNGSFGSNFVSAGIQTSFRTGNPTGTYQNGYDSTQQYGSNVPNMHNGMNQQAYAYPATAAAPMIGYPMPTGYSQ

Assays:
[1] = target: DHX9 (HEK293 cells) (human (endogenous in HEK293)) (UniProt Q08211); assay: co-IP; HEK293 cells overexpressing NRL, lysed in 40 mM Tris-HCl pH 8.0, 150 mM NaCl, 2 mM EDTA, 0.2% NP-40; lysates treated 30 min at 37°C with RNaseOUT (control), RNase A, RNase H or DNase I; IP with NRL, DHX9 or DDX5 antibody on Dynabeads Protein A overnight at 4°C; immunoblot
[2] = target: NRL (bovine retina) (bovine (endogenous in bovine retina)) (UniProt F1N4J1); assay: co-IP; nuclear fraction of bovine retina in co-IP binding buffer, sonicated; lysates treated 30 min at 37°C with RNaseOUT (control), RNase A or RNase H; IP with NRL, DHX9 or DDX5 antibody on Dynabeads Protein A overnight at 4°C; immunoblot
[3] = target: DHX9 RNA helicase (bovine retina) (bovine (endogenous in bovine retina)) (UniProt Q28141); assay: as above
[4] = target: NRL (mouse retina) (mouse (endogenous in mouse retina)) (UniProt P54846); assay: proximity ligation; Duolink PLA on adult mouse retina sections with anti-NRL and anti-DHX9 or anti-DDX5 antibodies; Nrl KO retina as control
[5] = target: human NRL fused to GST (human) (UniProt P54845); assay: pull-down; GST-NRL on Glutathione Sepharose beads incubated 2 hr at 4°C with nuclear fraction from bovine retina, with or without 25 U of benzonase; washes in PBS with 1% Triton X-100; immunoblot; purified GST as control; only the target purified

Substance: DDX5 (bovine retina) (from UniProt A0A3Q1M155 1-614)
binding [2]: binds
binding [3]: binds

Substance: DHX9 (mouse retina) (from UniProt O70133 1-1380)
binding [4]: binds

Substance: HNRNPA1 (bovine retina) (from UniProt P09867 1-320)
binding [5]: binds

Substance: HNRNPA2B1 (bovine retina) (from UniProt Q2HJ60 1-341)
binding [5]: binds

Substance: Xpress-tagged human NRL (from UniProt P54845 1-237)
binding [1]: binds

Next, values leading:

binding [1]: binds
Substance: DDX5 (HEK293 cells) (from UniProt P17844 1-614)

binding [2]: binds
binding [5]: binds
Substance: DHX9 RNA helicase (bovine retina) (from UniProt Q28141 1-1287)

binding [3]: binds
Substance: NRL (bovine retina) (from UniProt F1N4J1 1-262)
